# Laboratory results: PubChem BioAssay AID1671190 (National Center for Advancing Translational Sciences (NCATS), 2021)
# Amino acid sequences for entries named in this document (tags omitted).
# UniProt P18054, whole entry, looked up: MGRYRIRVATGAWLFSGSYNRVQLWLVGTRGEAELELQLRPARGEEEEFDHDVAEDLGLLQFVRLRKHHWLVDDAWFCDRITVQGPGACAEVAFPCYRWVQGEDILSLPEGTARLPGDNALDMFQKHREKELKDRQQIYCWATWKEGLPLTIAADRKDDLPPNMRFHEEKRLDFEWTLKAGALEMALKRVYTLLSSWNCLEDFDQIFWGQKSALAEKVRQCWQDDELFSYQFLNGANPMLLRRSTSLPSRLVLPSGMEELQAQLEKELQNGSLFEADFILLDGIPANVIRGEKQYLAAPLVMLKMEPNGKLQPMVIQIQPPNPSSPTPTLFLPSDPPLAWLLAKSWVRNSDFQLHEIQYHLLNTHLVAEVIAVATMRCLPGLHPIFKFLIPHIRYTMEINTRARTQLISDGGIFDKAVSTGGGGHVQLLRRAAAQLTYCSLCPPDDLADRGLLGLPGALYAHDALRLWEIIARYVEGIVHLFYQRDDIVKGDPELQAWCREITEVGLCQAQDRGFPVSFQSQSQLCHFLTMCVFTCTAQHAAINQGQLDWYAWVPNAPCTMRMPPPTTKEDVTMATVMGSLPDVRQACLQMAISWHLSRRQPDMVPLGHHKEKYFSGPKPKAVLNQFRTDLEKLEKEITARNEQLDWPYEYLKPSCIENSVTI
# Out of some 580,000 compounds screened, about 6,100 (1.1%) were called active. Inconclusive means that the source gave no clear call. Such entries were picked first, then a sample of the others. Calls follow the shape of the dose curve; as a rule, active = well fitted inhibition curve with a large enough effect; inconclusive = small, poorly fitted or top-dose-only effect, or another doubt; inactive = no such curve, though single readings can be large or run the other way. Potencies beside an inconclusive call are fits to weak or partial responses and may not hold up.
# Target: Polyunsaturated fatty acid lipoxygenase ALOX12 (Homo sapiens) (UniProt P18054)
# Experiment: Primary qHTS assay for inhibitors of human arachidonate 12S-lipoxygenase (ALOX12): Round 2
# Settings: purified 12hLO, xylenol orange hydroperoxide absorbance; series mostly up to 108 µM
# Summary of the method: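 Purified human 12hLO (150 nM final) in 25 mM Hepes, 0.01% Triton X-100, pH 7.0 was preincubated 15 min at room temperature with compound. Then 40 uM arachidonic acid was added, 30 min. Hydroperoxide was read by Fe-XO absorbance ratio 573/405 nm.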
# Potency is read from the fitted curve at half-maximal effect.
row,SMILES,Potency
1,CC(=O)Oc1ccc2c(=O)c(Oc3ccccc3Br)c(C)oc2c1,"inconclusive: 39.8 µM [inhibitor, partial curve, poor fit]"
2,COc1ccccc1NS(=O)(=O)c1ccc2oc(SCc3ccc(F)cc3)nc2c1,inactive
3,Cn1cc(S(=O)(=O)N2CCCC(C(=O)Nc3ccn(Cc4c(F)cccc4Cl)n3)C2)cn1 (centres undefined),inactive
4,C=CCNc1nc(C(=O)OCC(=O)c2ccccc2)cs1,inactive
5,CN1CCN(c2nc3ccccn3c(=O)c2C=C(C#N)C#N)CC1,"inconclusive: 35.5 µM [inhibitor, single point]"
6,CCOc1cc(-c2ccc(O)c(OC)c2)cc(=O)c2c(C)oc(C)c12,active: 7.08 µM
7,CCCOc1ccc(/C=C(/C#N)c2nc3ccccc3[nH]2)cc1Br,inactive
8,CCCc1cc(-c2n[nH]c(=S)n2CC(C)C)cs1,"inconclusive: 44.7 µM [inhibitor, partial curve, poor fit]"
9,COc1cccc(C(=O)N(Cc2cc3cc(C)ccc3[nH]c2=O)CC2CCCO2)c1 (centres undefined),inactive
10,COc1cncc(N2C[C@H]3[C@H](C2)[S+](=O)([O-])C(C)(C)C(=O)N3Cc2ccccc2)c1,"inconclusive: 28.2 µM [inhibitor, partial curve]"
11,Oc1ccc(NC(=S)Nc2ccc(F)cc2)cc1,"inconclusive: 44.7 µM [inhibitor, partial curve, poor fit]"
12,O=C(CSc1ccccc1)Nc1ccc2c(c1)OCO2,"inconclusive: 50.1 µM [inhibitor, partial curve, poor fit]"
13,COc1ccc(C(=O)NCc2cccnc2N(C)C2CCCCC2)o1,"inconclusive: 100 µM [inhibitor, single point]"
14,CC(C)(C)c1ccc(OCc2ccc(C(=O)N3CCOCC3)o2)cc1,inactive
15,COc1ccc(C(=O)Nc2ccc(S(=O)(=O)Nc3nccc(C)n3)cc2)cc1OC,"inconclusive: 35.5 µM [inhibitor, full curve, poor fit]"
16,COc1ccc(CCNC(=O)C2CCC(=O)N(C3CC3)C2)c(OC)c1 (centres undefined),inactive
17,COc1cc(CN2CCC(C)(NC(C)=O)CC2)cc(Nc2ccccc2)c1,active: 12.6 µM
18,O=C(CCl)NCc1c(Cl)cccc1-n1cccc1,inactive
19,CCSc1nnc(NS(=O)(=O)c2ccc(OC)cc2)s1,"inconclusive: 20 µM [inhibitor, single point]"
20,O=C1OC(C(Cl)(Cl)Cl)Nc2ccccc21 (centres undefined),"inconclusive: 50.1 µM [inhibitor, partial curve, poor fit]"
21,COc1ccc2nc(C)cc(Sc3nc4ccccc4s3)c2c1,inactive
22,Cn1c(=O)c2c(nc(CN3CCN(c4ccc(F)cc4)CC3)n2Cc2ccccc2)n(C)c1=O,inactive

# No new results follow: entries from further up.
row,SMILES,Potency
8,CCCc1cc(-c2n[nH]c(=S)n2CC(C)C)cs1,"inconclusive: 44.7 µM [inhibitor, partial curve, poor fit]"
9,COc1cccc(C(=O)N(Cc2cc3cc(C)ccc3[nH]c2=O)CC2CCCO2)c1 (centres undefined),inactive
10,COc1cncc(N2C[C@H]3[C@H](C2)[S+](=O)([O-])C(C)(C)C(=O)N3Cc2ccccc2)c1,"inconclusive: 28.2 µM [inhibitor, partial curve]"
11,Oc1ccc(NC(=S)Nc2ccc(F)cc2)cc1,"inconclusive: 44.7 µM [inhibitor, partial curve, poor fit]"
12,O=C(CSc1ccccc1)Nc1ccc2c(c1)OCO2,"inconclusive: 50.1 µM [inhibitor, partial curve, poor fit]"
13,COc1ccc(C(=O)NCc2cccnc2N(C)C2CCCCC2)o1,"inconclusive: 100 µM [inhibitor, single point]"
14,CC(C)(C)c1ccc(OCc2ccc(C(=O)N3CCOCC3)o2)cc1,inactive
15,COc1ccc(C(=O)Nc2ccc(S(=O)(=O)Nc3nccc(C)n3)cc2)cc1OC,"inconclusive: 35.5 µM [inhibitor, full curve, poor fit]"
16,COc1ccc(CCNC(=O)C2CCC(=O)N(C3CC3)C2)c(OC)c1 (centres undefined),inactive
17,COc1cc(CN2CCC(C)(NC(C)=O)CC2)cc(Nc2ccccc2)c1,active: 12.6 µM
18,O=C(CCl)NCc1c(Cl)cccc1-n1cccc1,inactive
19,CCSc1nnc(NS(=O)(=O)c2ccc(OC)cc2)s1,"inconclusive: 20 µM [inhibitor, single point]"
20,O=C1OC(C(Cl)(Cl)Cl)Nc2ccccc21 (centres undefined),"inconclusive: 50.1 µM [inhibitor, partial curve, poor fit]"
21,COc1ccc2nc(C)cc(Sc3nc4ccccc4s3)c2c1,inactive

# Remaining list, next part:

row,SMILES,Potency
1,Cc1cccc(N2CCN(CC(=O)Nc3ccc(S(=O)(=O)N4CCOCC4)cc3)CC2)c1C,inactive
2,CC(NS(=O)(=O)c1ccccc1)C(=O)NCc1ccco1 (centres undefined),"inconclusive: 28.2 µM [inhibitor, partial curve]"
3,C=CCn1c(P(=O)(O)c2ccccc2)nc2ccccc21,"inconclusive: 1.41 µM [inhibitor, full curve, poor fit]"
4,CNC(=S)N/N=C(\C)c1cccc([N+](=O)[O-])c1,"inconclusive: 79.4 µM [inhibitor, partial curve, poor fit]"
5,O=C(NCc1ccco1)c1cc([N+](=O)[O-])ccc1N1CCCCC1,inactive
6,CC/C(O)=C1\C(=O)CC(c2ccccc2)CC1=NC(C)C (centres undefined),inactive
7,Cc1ccccc1-c1nc(S(=O)(=O)c2ccc3c(c2)OCCO3)c(N2CCN(C)CC2)o1,"inconclusive: 44.7 µM [inhibitor, partial curve, poor fit]"
8,CN1C(=O)C(=O)/C(=C(/O)c2ccc(Br)cc2)C1c1ccc(Cl)cc1 (centres undefined),"inconclusive: 39.8 µM [inhibitor, partial curve]"
9,Cc1cccc(OC[C@H]2C[C@@H](NCc3ccc(C)o3)[C@H](O)[C@@H]2O)n1,"inconclusive: 25.1 µM [inhibitor, full curve, poor fit]"
10,CCOc1ccc(CN2C[C@@H](NC(=O)c3cccnc3)C[C@H]2CO)cc1,"inconclusive: 28.2 µM [inhibitor, full curve]"
11,CN1CC(=O)N(c2ccccc2F)Cc2c(NCCc3ccc(Cl)cc3)ncnc21,"inconclusive: 7.94 µM [inhibitor, full curve]"
12,Brc1ccc(-c2n(-c3ccccn3)c3ccccc3[n+]2-c2ccccn2)cc1,"inconclusive: 112 µM [inhibitor, single point]"
13,N=c1c[n+](-c2ccc(Cl)cc2)[n-]o1,"inconclusive: 44.7 µM [inhibitor, partial curve, poor fit]"
14,Cc1oc2c(cc(NS(=O)(=O)c3ccc4c5c(cccc35)C(=O)N4)c3ccccc32)c1C(=O)OC(C)C,"inconclusive: 56.2 µM [inhibitor, partial curve, poor fit]"
15,CCN(CC)CCNC(C(=O)Nc1cccc(C(C)=O)c1)c1ccccc1 (centres undefined),"inconclusive: 1.12 µM [inhibitor, full curve, poor fit]"
16,CCOc1ccccc1-n1c(SCC(=O)N(CC)CC)nnc1-c1ccccn1,"inconclusive: 112 µM [inhibitor, partial curve, poor fit]"
17,CC(C)(C)CC(C)(C)NC(=O)CSCC(=O)Nc1ccc2ccccc2c1,"inconclusive: 39.8 µM [inhibitor, partial curve, poor fit]"
18,CC1=NN(c2nc(-c3ccc(Cl)cc3)cs2)C(=O)C1,active: 5.62 µM
19,O=C(NCc1ccccc1OC(F)(F)F)C1CCC(=O)N(Cc2ccccn2)C1 (centres undefined),inactive
20,Cc1ccc(-n2c(C)cc(C(=O)CN3CCOCC3)c2C)cc1C,inactive
21,O=C(Cc1ccccc1)Nc1ccccc1N1CCN(c2ccccc2)CC1,"inconclusive: 3.55 µM [inhibitor, full curve, poor fit]"
22,COc1cc(S(=O)(=O)N2CCN(CCO)CC2)ccc1Br,inactive

row,SMILES,Potency
1,C=CCN=C1CCCc2c1[nH]c1ccc(C)cc21,"inconclusive: 79.4 µM [inhibitor, single point]"
2,COc1ccccc1N1CCN(C(=O)c2ccccc2SCC(=O)N2CCCC2)CC1,inactive
3,CCN(CC)S(=O)(=O)c1ccc(NC(=S)NC(=O)C(C)C)cc1,"inconclusive: 44.7 µM [inhibitor, partial curve, poor fit]"
4,O=C(Nc1ccc(Cl)cc1)c1csc([C@@H]2O[C@H](CO)[C@@H](O)[C@H]2O)n1,"inconclusive: 112 µM [inhibitor, single point]"
5,Cc1ccc(C(C)(C)C)c(OCC(=O)NCCc2nc3ccccc3[nH]2)c1,"inconclusive: 100 µM [inhibitor, partial curve, poor fit]"
6,CC(=O)Nc1cccc(C(=O)O)c1O,"inconclusive: 44.7 µM [inhibitor, partial curve, poor fit]"
7,COC(=O)C1=C(C)N(Cc2cccc(C(F)(F)F)c2)C(=NCc2ccc(OC)cc2)NC1c1ccc(F)cc1 (centres undefined),"inconclusive: 44.7 µM [inhibitor, partial curve, poor fit]"
8,O=C(CN1CCN(CC(=O)Nc2ccccc2Cl)CC1)Nc1ccc2c(c1)OCCO2,inactive
9,CCN(CC)c1cc2c(cc1F)c(=O)c(S(=O)(=O)c1cc(C)ccc1C)cn2Cc1ccccc1,"inconclusive: 28.2 µM [inhibitor, partial curve, poor fit]"
10,O=C1NCc2ccccc2CC12CCCN(Cc1c[nH]c3ccccc13)C2 (centres undefined),"inconclusive: 89.1 µM [inhibitor, partial curve, poor fit]"
11,COC(=O)c1ccc(C2C(c3ccc(OC)cc3)=C(O)C(=O)N2CCc2ccccc2)cc1 (centres undefined),"inconclusive: 39.8 µM [inhibitor, partial curve, poor fit]"
12,O=C(COc1ccccc1Cl)NCCCNC(=O)c1ccco1,"inconclusive: 112 µM [inhibitor, partial curve, poor fit]"
13,COc1ccc2cc3cc(C(=O)NCc4ccc5c(c4)OCO5)oc3nc2c1,"inconclusive: 14.1 µM [inhibitor, partial curve, poor fit]"
14,Cc1ccc(S(=O)(=O)SCCCSS(=O)(=O)c2ccc(C)cc2)cc1,active: 1.78 µM
15,CCOC(=O)C(=O)NCc1ccccc1,"inconclusive: 2 µM [inhibitor, partial curve, poor fit]"
16,OCC1CNCCC12CCN(Cc1ccc3ccccc3c1)CC2 (centres undefined),inactive
17,CCN(CC)CCCNC(=O)/C=C/C(=O)O,inactive
18,CCCC(=O)N1CCN(c2ccc(NC(=S)NC(=O)CC)cc2)CC1,"inconclusive: 50.1 µM [inhibitor, partial curve, poor fit]"
19,Cc1ccc(-c2onc3ccc(Br)cc23)cc1,"inconclusive: 28.2 µM [inhibitor, partial curve, poor fit]"
20,COc1ccc(C(=O)Oc2cccnc2)cc1OC,"inconclusive: 35.5 µM [inhibitor, single point]"
